Data reported in US20130137748A1.
No constants are given. Whether binding was seen depends on the method and setting. In cells and extracts the contact can be indirect. Some entries that bind do so weakly or less than the wild type.

Chains of the proteins cited; added tags and fusions are not shown. Lines headed by an entry give the natural chain unless they say otherwise; changes in a name come on top.
UniProt P46940: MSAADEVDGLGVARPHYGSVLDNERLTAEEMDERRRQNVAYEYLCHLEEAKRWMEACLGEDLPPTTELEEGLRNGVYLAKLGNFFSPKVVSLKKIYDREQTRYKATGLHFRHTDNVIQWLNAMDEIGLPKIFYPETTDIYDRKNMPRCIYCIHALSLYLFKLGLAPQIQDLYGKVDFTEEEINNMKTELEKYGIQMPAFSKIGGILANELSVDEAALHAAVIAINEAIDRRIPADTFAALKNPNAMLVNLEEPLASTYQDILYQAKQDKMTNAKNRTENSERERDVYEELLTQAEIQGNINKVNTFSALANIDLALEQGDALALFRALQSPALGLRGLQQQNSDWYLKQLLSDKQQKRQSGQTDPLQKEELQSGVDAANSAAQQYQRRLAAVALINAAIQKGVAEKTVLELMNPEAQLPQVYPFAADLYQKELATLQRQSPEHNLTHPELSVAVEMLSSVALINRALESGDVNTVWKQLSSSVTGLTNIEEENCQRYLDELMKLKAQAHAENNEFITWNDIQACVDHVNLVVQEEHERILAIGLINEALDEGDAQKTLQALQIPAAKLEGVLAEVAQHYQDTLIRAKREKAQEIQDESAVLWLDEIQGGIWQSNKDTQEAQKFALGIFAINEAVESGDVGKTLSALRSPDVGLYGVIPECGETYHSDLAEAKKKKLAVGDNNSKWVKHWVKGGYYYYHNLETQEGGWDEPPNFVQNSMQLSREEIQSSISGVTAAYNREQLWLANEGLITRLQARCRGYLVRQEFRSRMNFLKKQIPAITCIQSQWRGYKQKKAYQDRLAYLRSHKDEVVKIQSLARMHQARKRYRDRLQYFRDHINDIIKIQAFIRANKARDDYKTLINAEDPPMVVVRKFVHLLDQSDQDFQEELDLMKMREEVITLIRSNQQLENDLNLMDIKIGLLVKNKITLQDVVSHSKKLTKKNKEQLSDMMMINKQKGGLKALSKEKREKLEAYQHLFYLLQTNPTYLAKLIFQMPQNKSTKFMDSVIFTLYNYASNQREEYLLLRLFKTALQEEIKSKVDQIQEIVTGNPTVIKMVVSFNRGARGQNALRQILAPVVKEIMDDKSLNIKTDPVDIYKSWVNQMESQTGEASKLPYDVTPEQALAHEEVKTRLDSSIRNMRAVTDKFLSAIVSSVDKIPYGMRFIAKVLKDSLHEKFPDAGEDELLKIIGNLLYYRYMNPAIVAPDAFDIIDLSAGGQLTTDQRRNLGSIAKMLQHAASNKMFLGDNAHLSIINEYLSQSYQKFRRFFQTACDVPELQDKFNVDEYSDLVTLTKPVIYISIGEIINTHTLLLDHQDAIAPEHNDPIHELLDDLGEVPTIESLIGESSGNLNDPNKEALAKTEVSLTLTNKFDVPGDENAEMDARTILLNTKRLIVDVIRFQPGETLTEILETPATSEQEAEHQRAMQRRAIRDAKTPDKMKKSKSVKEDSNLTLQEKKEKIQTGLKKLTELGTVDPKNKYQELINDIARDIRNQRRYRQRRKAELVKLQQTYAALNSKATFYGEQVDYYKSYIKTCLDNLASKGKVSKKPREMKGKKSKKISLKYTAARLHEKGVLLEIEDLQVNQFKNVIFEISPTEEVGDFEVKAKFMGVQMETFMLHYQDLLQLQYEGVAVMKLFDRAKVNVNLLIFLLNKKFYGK
UniProt P31751: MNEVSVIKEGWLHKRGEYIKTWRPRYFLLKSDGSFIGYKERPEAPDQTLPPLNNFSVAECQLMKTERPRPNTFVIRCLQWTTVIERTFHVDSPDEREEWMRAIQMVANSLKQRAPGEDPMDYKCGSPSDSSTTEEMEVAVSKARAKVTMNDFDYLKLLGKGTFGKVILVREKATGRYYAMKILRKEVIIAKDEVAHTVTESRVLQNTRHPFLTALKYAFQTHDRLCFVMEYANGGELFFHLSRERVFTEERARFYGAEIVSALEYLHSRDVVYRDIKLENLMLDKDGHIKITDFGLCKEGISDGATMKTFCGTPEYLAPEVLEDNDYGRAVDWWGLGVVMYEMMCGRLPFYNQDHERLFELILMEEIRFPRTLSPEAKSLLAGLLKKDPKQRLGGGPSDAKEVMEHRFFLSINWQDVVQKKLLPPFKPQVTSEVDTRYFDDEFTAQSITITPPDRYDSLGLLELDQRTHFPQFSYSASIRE
UniProt Q13009: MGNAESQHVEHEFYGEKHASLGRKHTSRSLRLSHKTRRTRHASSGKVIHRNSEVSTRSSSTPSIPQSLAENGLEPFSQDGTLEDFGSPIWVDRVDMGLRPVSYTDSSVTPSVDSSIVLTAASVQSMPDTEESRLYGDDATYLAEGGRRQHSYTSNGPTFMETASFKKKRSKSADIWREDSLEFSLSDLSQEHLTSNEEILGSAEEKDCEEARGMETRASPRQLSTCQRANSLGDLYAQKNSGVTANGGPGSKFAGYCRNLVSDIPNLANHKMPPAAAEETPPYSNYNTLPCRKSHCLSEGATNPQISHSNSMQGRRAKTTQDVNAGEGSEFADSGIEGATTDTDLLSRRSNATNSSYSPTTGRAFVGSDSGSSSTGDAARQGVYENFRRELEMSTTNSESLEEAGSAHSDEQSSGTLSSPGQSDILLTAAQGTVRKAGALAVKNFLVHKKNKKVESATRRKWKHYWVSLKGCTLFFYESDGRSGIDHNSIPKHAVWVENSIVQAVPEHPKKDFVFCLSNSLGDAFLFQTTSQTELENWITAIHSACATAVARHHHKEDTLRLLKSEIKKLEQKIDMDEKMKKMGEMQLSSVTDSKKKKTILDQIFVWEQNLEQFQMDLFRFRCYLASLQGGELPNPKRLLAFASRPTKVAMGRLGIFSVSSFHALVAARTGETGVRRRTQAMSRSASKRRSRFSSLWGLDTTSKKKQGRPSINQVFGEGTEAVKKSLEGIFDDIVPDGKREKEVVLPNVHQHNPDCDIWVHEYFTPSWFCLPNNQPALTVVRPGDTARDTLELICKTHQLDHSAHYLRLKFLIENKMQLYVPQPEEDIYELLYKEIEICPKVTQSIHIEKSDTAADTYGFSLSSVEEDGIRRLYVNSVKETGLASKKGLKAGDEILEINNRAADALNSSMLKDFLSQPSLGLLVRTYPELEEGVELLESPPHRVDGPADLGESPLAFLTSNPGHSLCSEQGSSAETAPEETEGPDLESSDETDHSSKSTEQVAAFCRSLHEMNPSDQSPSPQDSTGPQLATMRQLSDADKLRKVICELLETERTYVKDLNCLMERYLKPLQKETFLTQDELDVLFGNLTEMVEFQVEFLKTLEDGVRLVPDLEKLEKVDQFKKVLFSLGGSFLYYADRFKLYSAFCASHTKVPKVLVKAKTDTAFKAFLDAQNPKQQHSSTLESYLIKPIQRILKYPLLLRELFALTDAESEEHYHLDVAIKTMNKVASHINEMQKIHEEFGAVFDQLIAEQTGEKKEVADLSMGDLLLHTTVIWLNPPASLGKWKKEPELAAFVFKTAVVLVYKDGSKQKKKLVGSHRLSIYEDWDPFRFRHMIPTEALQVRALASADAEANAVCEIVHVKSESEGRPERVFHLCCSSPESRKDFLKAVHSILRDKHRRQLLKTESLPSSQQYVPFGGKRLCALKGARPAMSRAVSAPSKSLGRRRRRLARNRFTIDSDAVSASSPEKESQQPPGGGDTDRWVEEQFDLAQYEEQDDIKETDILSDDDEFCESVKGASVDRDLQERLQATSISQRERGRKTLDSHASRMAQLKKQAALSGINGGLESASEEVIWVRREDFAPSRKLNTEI
UniProt P35222: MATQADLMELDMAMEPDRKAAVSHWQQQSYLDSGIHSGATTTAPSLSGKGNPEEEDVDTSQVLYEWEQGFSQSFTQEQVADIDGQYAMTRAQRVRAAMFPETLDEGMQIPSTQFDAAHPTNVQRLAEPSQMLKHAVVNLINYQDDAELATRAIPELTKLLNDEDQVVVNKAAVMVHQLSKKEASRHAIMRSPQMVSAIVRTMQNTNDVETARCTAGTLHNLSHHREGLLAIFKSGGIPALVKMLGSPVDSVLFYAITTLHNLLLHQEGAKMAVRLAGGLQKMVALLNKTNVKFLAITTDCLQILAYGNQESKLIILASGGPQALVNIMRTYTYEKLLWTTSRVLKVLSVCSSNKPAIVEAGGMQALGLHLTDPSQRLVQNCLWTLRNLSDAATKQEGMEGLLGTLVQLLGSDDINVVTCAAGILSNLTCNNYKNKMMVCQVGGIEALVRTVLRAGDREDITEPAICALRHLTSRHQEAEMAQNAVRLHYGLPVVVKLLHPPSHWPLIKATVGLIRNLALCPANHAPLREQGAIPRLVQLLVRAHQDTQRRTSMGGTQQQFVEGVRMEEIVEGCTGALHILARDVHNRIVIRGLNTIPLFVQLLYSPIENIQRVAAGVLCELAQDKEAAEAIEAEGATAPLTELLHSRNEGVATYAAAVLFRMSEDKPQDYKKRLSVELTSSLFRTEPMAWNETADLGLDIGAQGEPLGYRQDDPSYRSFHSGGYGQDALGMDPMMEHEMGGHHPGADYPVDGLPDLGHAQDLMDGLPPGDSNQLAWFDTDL
UniProt O96028: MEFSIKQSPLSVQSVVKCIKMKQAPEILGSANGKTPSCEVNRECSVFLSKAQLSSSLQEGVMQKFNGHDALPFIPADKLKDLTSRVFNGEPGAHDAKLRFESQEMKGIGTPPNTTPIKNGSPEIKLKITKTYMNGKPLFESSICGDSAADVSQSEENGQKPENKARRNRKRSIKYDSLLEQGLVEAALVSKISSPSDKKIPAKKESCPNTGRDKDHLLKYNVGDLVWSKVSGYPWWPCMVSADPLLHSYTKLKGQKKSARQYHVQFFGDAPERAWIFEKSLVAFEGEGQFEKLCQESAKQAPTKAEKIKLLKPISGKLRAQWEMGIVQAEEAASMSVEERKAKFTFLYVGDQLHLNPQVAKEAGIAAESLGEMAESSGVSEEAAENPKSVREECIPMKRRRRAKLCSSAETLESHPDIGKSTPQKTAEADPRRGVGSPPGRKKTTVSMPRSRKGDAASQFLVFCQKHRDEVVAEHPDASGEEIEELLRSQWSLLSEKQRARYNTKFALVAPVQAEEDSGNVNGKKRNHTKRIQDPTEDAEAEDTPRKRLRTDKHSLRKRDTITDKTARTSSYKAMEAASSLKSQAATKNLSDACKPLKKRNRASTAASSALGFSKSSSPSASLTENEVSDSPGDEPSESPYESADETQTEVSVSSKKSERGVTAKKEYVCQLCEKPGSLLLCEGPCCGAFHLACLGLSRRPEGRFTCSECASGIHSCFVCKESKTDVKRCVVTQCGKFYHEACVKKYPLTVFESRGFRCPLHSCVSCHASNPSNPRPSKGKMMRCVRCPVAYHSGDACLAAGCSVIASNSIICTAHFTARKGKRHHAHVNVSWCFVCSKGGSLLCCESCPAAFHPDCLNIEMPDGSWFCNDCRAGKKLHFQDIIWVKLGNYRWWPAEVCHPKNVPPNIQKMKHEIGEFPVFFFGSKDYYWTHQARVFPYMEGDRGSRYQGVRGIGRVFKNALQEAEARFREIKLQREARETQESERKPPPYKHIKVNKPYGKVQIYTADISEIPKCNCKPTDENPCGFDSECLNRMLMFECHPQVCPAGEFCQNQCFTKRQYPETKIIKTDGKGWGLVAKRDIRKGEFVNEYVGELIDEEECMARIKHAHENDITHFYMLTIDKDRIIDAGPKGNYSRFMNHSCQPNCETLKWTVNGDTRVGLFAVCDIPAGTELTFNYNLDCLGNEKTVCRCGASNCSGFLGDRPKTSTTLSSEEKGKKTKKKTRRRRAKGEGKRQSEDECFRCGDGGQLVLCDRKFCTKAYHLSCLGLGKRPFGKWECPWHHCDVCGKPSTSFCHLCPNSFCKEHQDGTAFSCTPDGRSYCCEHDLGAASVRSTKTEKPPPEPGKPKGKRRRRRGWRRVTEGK

Assays:
[1] = target: IQGAP1 (IQ motif containing GTPase activating protein 1) (Homo sapiens (Human)) (UniProt P46940); assay: figure legend (IP-MS and co-immunoprecipitation)
[2] = target: AKT2 (v-akt murine thymoma viral oncogene homolog 2) (Homo sapiens (Human)) (UniProt P31751); assay: figure legend (IP-MS and co-immunoprecipitation)
[3] = target: TIAM1 (T-cell lymphoma invasion and metastasis 1) (Homo sapiens (Human)) (UniProt Q13009); assay: figure legend (IP-MS and co-immunoprecipitation)
[4] = target: IQGAP1 (IQ motif containing GTPase activating protein 1) (Homo sapiens (Human)) (UniProt P46940); assay: co-immunoprecipitation (anti-FLAG M2 agarose, 293T lysate) and immunoblot
[5] = target: AKT2 (v-akt murine thymoma viral oncogene homolog 2) (Homo sapiens (Human)) (UniProt P31751); assay: as above
[6] = target: beta-catenin (Homo sapiens (Human)) (UniProt P35222); assay: as above
[7] = target: TIAM1 (T-cell lymphoma invasion and metastasis 1) (Homo sapiens (Human)) (UniProt Q13009); assay: as above
[8] = target: IQGAP1 (IQ motif containing GTPase activating protein 1) (Homo sapiens (Human)) (UniProt P46940); assay: discussion of the co-immunoprecipitation results
[9] = target: beta-catenin (Homo sapiens (Human)) (UniProt P35222); assay: discussion of the co-immunoprecipitation results
[10] = target: TIAM1 (T-cell lymphoma invasion and metastasis 1) (Homo sapiens (Human)) (UniProt Q13009); assay: discussion of the co-immunoprecipitation results
[11] = target: beta-catenin (Homo sapiens (Human)) (UniProt P35222); assay: figure legend (co-immunoprecipitation)

Measured: binding

3×FLAG-WHSC1 (Wolf-Hirschhorn syndrome candidate-1, FLAG-tagged) (from UniProt O96028 1-1365) (enzyme)
binds: all assays above
